Test results published in patent US20200221739A1, “METHOD FOR REMOVAL OF ANTIBIOTIC RESIDUES FROM FOOD PRODUCTS” (The King Abdulaziz City for Science and Technology, priority 2016, published 2020).
At least one compound was matched to its structure with a doubt left.

Experiment: Degradation of antibiotics in double distilled water by gamma radiation, UV-Vis absorption
Format: physicochemical
Conditions: 50 |iM in double distilled water, 7 kGy gamma radiation

In the case of C[C@H]1c2cccc(O)c2C(=O)C2=C(O)[C@]3(O)C(=O)C(C(N)=O)=C(O)[C@@H](N(C)C)[C@@H]3[C@@H](O)[C@@H]21 [doxycycline], the “Removal (decrease of UV-Vis absorption bands) upon gamma irradiation” value is reported as “complete removal”.
